Laboratory results from patent US20230287046A1, “MOLECULES TARGETING PROTEINS” (AELIN THERAPEUTICS, priority 2020, published 2023).
Substitutions are numbered along the chain they refer to. Names and notes keep the numbering of the source. Results are given in words; binding and its absence hold for the method and conditions named. Some binding calls cover weakened binding; strength is not graded here. For part of these data: Sequences can lack the tags named with a protein. One block for each binder: values may come before it.

Experiments:
[1] = target: T1, ITK R29L, DYKDDDDK-tagged (produced by in vitro translation) (human) (UniProt Q08881); assay: in vitro translation assay (FIG. 14)
T1 sequence: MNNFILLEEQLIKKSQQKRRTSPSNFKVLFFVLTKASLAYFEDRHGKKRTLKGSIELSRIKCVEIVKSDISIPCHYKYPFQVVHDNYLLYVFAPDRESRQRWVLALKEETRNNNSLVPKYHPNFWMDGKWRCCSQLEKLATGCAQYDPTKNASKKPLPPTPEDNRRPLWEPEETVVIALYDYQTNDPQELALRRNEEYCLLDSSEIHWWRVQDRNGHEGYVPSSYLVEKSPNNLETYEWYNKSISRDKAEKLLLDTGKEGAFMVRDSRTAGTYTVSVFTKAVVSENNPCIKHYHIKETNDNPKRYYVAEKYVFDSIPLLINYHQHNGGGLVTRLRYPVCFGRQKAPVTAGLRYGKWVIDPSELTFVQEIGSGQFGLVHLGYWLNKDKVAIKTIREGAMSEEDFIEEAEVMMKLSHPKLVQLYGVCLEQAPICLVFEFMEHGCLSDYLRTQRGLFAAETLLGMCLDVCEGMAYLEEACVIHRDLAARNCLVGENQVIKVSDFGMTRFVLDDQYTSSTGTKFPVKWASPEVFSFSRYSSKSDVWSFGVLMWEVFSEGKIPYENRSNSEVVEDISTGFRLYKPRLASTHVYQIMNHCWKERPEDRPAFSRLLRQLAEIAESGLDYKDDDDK

[2] = target: T1, ITK R29L, DYKDDDDK-tagged (produced by in vitro translation) (human); assay: in vitro translation with 10 µM biotinylated pept-in, streptavidin pull-down, anti-DYKDDDDK Western blot
[3] = target: mCherry-tagged KRAS G12V (overexpressed in HeLa cells) (human) (UniProt P01116); assay: confocal co-localization in HeLa cells overexpressing mCherry-KRAS G12V
[4] = target: mCherry-tagged KRAS G12V (overexpressed in HeLa cells) (human) (UniProt P01116); assay: confocal co-localization in HeLa cells overexpressing mCherry-KRAS G12V (FIG. 8)
[5] = target: T2, ITK R29C, DYKDDDDK-tagged (produced by in vitro translation) (human) (UniProt Q08881); assay: in vitro translation assay (FIG. 14)
T2 sequence: T1 sequence with L29C

[6] = target: T2, ITK R29C, DYKDDDDK-tagged (produced by in vitro translation) (human); assay: in vitro translation with 10 µM biotinylated pept-in, streptavidin pull-down, anti-DYKDDDDK Western blot

- binding [1]: binds
- binding [2]: binds
B1: 22-018-N001 (peptide)
peptide: AKVLFFVKGSKVLFFVK
modifications: N-terminally biotinylated; C-terminally amidated

- binding [3]: binds
- binding [4]: binds
B2: 04-015-N032 (peptide)
peptide: KVVVGAVGKGSKVVVGAVGK
modifications: FITC label (position not given)

- binding [5]: binds
- binding [6]: binds
B3: 22-006-N001 (peptide)
peptide: AKVCFFVKGSKVCFFVK
modifications: N-terminally biotinylated; C-terminally amidated
